# Results from one PubChem assay

The results are deposited in PubChem (AID1963591; Tox21, 2024).

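CRE-bla HEK293T reporter cells under cAMP stimulation; the beta-lactamase FRET ratio is measured about 3 hours after compound addition. Each compound was run as a concentration series, mostly reaching a top of 92.4 µM. Fitted potency from the dose curve; a lower value means a more potent compound. Calls come from the whole dose curve: active means a well-fitted inhibition curve with enough effect in repeat runs, inconclusive means weak, mixed or opposite-direction curves, and inactive means a flat curve.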

Values are in µM. Every entry below has the call inconclusive. Only part of the assay is shown, chiefly results filed as inconclusive. Potencies fitted to partial, single-point or poorly fitting curves are rough. Some entries filed as inconclusive have a full curve. The first word of each remark tells which way the curve ran; it can be opposite to the aim of the assay. An entry listed twice with the same setting is a separate test.

structure	Potency (µM)	curve as filed
C=C(C)C(=O)OCCOC1CC2CC1C1C=CCC21 (stereo not given)	73.64	-
OCCN(CCO)c1nc(N2CCCCC2)c2nc(N(CCO)CCO)nc(N3CCCCC3)c2n1	26.6	fluorescent
C=CC(=O)OCC1CC2CC1C1CCC(COC(=O)C=C)C21 (stereo not given)	61.13	fluorescent, partial curve
C=C1C[C@H]2[C@@H]3C=C(C)C4=CC(=O)CC[C@]4(C)[C@H]3CC[C@]2(C)[C@@]1(OC(C)=O)C(C)=O	26.6	fluorescent, partial curve
O=C1C=CC(=O)N1c1ccccc1	43.28	rising, partial curve
CCOP(=O)(NC(C)C)Oc1ccc(SC)c(C)c1 (stereo not given)	43.28	activator
CC(=O)O[C@]1(C(C)=O)CC[C@H]2[C@@H]3C=C(C)C4=CC(=O)CC[C@]4(C)[C@H]3CC[C@@]21C	10.59	fluorescent
NC1(c2ccc(-c3nc4ccn5c(=O)[nH]nc5c4cc3-c3ccccc3)cc2)CCC1	14.96	fluorescent, partial curve
Cc1cc(N=Nc2ccccc2C)ccc1N	72.65	-
O=C(N[C@@H](c1ccccc1)[C@@H]1CCCCN1)c1cccc(C(F)(F)F)c1Cl	48.56	fluorescent, partial curve
CC1(COc2ccc(CC3SC(=O)NC3=O)cc2)CCCCC1 (stereo not given)	33.49	fluorescent, partial curve, poor fit
CC(=O)NC1(c2cccc(F)c2)CCN(CC[C@@]2(c3ccc(Cl)c(Cl)c3)CN(c3ccccc3)C(=O)CO2)CC1	54.63	-
CC[C@]1(O)C[C@@H]2CN(CCc3c([nH]c4ccccc34)[C@@](C(=O)OC)(c3cc4c(cc3OC)N(C)[C@H]3[C@@](O)(C(=O)OC)[C@H](OC(C)=O)[C@]5(CC)C=CCN6CC[C@]43[C@@H]65)C2)C1	29.85	fluorescent, single point
CC(=O)O[C@]1(C(C)=O)CC[C@H]2[C@@H]3C=C(C)C4=CC(=O)CC[C@]4(C)[C@H]3CC[C@@]21C	6.113	activator, full curve
CC1=C(/C=C/C(C)=C/C=C/C(C)=C\C=O)C(C)(C)CCC1	57.85	fluorescent, single point
CC[C@H](c1ccc(O)cc1)[C@@H](CC)c1ccc(O)cc1	29.85	-
Cc1cc(N=Nc2ccccc2C)ccc1N	68.59	single point
Cc1cc(C(C)(C)c2cc(C)c(O)c(C)c2)cc(C)c1O	52.66	inhibitor, partial curve, poor fit
O=C(O)C1(c2ccc3c(c2)OC[C@H](Cc2ccc(-c4ccccc4)cc2)[C@H]3O)CCCC1	54.48	fluorescent, partial curve
O=c1c(C2CC(c3ccc(-c4ccc(Br)cc4)cc3)Cc3ccccc32)c(O)sc2ccccc12 (stereo not given)	13.33	fluorescent, partial curve
CCOC(=O)c1cn2nc(OP(=S)(OCC)OCC)cc2nc1C	30.64	fluorescent, partial curve
Cc1ccc(-c2cc(C(F)(F)F)nn2-c2ccc(S(N)(=O)=O)cc2)cc1	26.6	fluorescent, partial curve
CC1C2CC(CC2C2CCCC(O)C2)C1(C)C (stereo not given)	68.59	single point
CCCCCOc1ccccc1/C(=C\SC)n1ccnc1	33.49	fluorescent
O=c1cc(-c2ccc(O)cc2)oc2cc(O)cc(O)c12	61.94	-
COc1ccc(CCN(C)CCCC(C#N)(c2cc(OC)c(OC)c(OC)c2)C(C)C)cc1OC (stereo not given)	33.49	activator, partial curve, poor fit
COc1cc(Cl)c(OC)cc1Cl	68.59	single point
Cc1oncc1C(=O)Nc1ccc(C(F)(F)F)cc1	76.96	rising, partial curve, poor fit
CC(C)(C)C(=O)OCOC(=O)[C@@H]1N2C(=O)[C@@H](NC(=O)[C@H](N)c3ccccc3)[C@H]2SC1(C)C	33.49	inhibitor, single point
C[C@]12CCC(=O)C[C@@H]1CC[C@@H]1[C@@H]2CC[C@]2(C)[C@@H](O)CC[C@@H]12	47.97	fluorescent, partial curve
CCCCCCCCCCn1cc[n+](C)c1	61.75	-
O=C1CCCCCCCCCCCC(=O)OCCO1	68.59	rising, partial curve
CN1CCC[C@@H]1CCO[C@](C)(c1ccccc1)c1ccc(Cl)cc1	33.49	-
O=C(C1CCCCC1)N1CC(=O)N2CCCc3ccccc3C2C1 (stereo not given)	21.13	fluorescent